Binding data for one substance are collected here from PMC10503009.

By UniProt entry, the sequences of proteins in these tests, tags left out.
UniProt Q9UJA3: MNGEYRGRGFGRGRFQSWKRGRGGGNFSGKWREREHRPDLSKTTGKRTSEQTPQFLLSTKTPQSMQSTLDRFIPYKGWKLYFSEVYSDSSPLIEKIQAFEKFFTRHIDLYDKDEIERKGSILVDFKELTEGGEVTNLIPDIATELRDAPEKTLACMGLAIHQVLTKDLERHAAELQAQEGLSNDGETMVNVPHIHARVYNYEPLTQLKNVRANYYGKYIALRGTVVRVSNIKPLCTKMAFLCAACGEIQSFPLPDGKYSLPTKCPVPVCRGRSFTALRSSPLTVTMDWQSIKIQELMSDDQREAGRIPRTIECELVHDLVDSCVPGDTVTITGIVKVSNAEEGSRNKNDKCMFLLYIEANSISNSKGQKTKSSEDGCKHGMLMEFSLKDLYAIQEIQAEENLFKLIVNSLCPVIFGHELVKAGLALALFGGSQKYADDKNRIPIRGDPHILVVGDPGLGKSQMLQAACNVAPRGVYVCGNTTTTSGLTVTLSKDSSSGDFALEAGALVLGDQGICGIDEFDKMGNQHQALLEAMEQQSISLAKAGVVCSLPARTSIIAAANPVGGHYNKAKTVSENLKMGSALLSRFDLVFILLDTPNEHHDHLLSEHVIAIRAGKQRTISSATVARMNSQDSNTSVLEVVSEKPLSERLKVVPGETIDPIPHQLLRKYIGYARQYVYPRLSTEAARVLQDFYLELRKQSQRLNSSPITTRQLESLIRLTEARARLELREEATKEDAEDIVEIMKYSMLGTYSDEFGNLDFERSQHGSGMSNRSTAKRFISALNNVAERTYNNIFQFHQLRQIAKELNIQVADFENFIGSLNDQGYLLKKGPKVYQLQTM
UniProt P46934: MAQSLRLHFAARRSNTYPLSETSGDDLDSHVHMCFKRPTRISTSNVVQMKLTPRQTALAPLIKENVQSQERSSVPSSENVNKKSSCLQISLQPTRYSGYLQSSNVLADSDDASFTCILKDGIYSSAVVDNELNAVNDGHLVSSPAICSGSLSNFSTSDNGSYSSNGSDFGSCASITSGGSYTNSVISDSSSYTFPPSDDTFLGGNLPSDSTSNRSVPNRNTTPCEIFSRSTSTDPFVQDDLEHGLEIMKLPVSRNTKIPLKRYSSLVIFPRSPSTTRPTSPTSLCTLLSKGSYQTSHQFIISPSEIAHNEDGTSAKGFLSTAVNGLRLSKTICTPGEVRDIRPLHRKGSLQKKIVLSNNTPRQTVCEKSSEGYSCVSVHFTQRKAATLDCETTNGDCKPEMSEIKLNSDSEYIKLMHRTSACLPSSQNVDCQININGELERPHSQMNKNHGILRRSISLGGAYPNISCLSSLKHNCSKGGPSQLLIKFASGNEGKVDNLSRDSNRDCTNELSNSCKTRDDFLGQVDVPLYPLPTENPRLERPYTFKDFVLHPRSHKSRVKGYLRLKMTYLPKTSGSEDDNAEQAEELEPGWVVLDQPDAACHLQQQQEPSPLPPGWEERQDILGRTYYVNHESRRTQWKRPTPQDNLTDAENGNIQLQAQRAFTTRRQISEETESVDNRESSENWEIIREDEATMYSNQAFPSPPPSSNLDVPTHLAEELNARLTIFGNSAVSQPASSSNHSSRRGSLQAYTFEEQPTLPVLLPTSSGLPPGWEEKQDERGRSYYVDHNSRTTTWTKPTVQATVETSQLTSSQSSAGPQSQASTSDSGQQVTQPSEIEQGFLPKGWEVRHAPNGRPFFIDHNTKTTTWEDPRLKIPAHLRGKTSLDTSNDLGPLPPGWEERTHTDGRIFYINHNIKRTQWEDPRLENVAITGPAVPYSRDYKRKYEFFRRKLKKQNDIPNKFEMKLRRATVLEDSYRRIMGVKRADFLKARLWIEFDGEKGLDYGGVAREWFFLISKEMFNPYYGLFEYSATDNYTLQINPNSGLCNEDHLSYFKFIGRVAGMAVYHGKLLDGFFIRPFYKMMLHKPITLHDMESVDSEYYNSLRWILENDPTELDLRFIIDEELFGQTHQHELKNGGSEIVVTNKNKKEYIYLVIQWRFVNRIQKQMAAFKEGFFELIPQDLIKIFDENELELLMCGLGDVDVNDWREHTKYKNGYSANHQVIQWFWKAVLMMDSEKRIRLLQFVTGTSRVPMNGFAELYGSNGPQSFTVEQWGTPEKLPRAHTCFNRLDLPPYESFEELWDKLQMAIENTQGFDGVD

For this assay, the target named is MCM8 (human (endogenous in human colorectal cancer cell lines)) (UniProt Q9UJA3). As to the kind of experiment: co-IP; cell lysates immunoprecipitated with anti-MCM8 antibody, normal mouse IgG as control; western blot with anti-MCM8 and anti-NEDD4 antibodies. Background: In western blotting, separated proteins are transferred to a membrane and probed.

Results are given in words; binding and its absence hold for the method and conditions named. In cells and extracts the contact can be indirect. Some results given as binding are weak or reduced against the parent protein; the word gives no strength.

On to NEDD4 (from UniProt P46934 1-1319), for which the binding entry is given as “binds”.
